Measured values: patent publication US20020127268A1, “Anion regulator for ruminants” (AJINOMOTO CO., INC., priority 1997, published 2002)

Columns and labels:
Format in all cases: in vivo
Holstein milk cows = assay: Palatability test No. 2 (free-choice intake of mixed feed); details: for Amount of intake (%): additive equivalent to −600 meq in 200 g concentrated feed, ten minutes; for Palatability compared with NH4Cl, MgSO4·7H2O and CaCl2·2H2O: Holstein milk cows in dry period, Table 2 summary
Holstein calves [1] = assay: Palatability test No. 1 (free-choice intake of mixed feed); details: for Amount of intake (%): additive equivalent to −300 meq in 100 g concentrated feed, after 10 minutes of feeding; for Palatability compared with NH4Cl, MgSO4·7H2O and CaCl2·2H2O: Holstein calves, Table 1 summary
Holstein calves [2] = assay: Test on anion regulating activity (urinary pH); details: in words
Description: If a DCAD value is positive, the urinary pH is 7-8.5. It is also known that if an anion regulator is added, and as a result the feed is changed to show a negative DCAD value, the urinary pH of animals to which such feed has been fed is reduced and will show a value of 6.5-5.5 when the anion regulator has been added in an appropriate amount. […] (1995), Sep., p.634 (Japanese version).
Experiments were conducted using six(6) Holstein calves with a body weight of approximately 200 kg. They were divided into three groups, two calves in a group. The groups were each fed with one of the following three(3) types of experimental feeds. Feed consisting of […] concentrated feed (“Beef-fast”, ex Itochu Feed Co.), 550 g of timothy-hay and 550 g of alfalfa hay cubes was fed, twice a day, at 9 and 16 o'clock, for one week before the start of the experiment, for adaptation.
These three(3) types of mixed feeds were separately supplied to each group at 9 and 16 o'clock on the same day and at 9 o'clock on the next day. After 10 minutes, each mixed feed was removed, and subsequently, a mixture of 900 g of concentrated feed, 500 g of timothy-hay and 550 g of alfalfa hay cubes, was supplied instead.
In the table and figure, for example, terms Lys HCl 1 and Lys HCl 2 indicate respectively the two calves in the first group which was fed with Lys HCl (Lys HCl-feeded group).

Row | SMILES | Amount of intake (%) (Holstein milk cows; Cow 4) | Amount of intake (%) (Holstein milk cows; Cow 5) | Amount of intake (%) (Holstein milk cows; Cow 6) | Amount of intake (%) (Holstein calves [1]; Calf 1) | Amount of intake (%) (Holstein calves [1]; Calf 2) | Amount of intake (%) (Holstein calves [1]; Calf 3) | Palatability compared with NH4Cl, MgSO4·7H2O and CaCl2·2H2O (Holstein milk cows) | Palatability compared with NH4Cl, MgSO4·7H2O and CaCl2·2H2O (Holstein calves [1]) | Intake of feed admixed with the compound (Holstein calves [2])
1 | O.O.O.O.O.O.O.O=S(=O)([O-])[O-].[Mg+2] [MgSO4.7H2O, MgSO4·7H2O, reference compound] | 55 | 15 | 24 | 35 | 14 | 50 | – | – | –
2 | O.O.[Ca+2].[Cl-].[Cl-] [CaCl2.2H2O, CaCl2·2H2O, reference compound] | 27 | −9 | 0 | 0 | 0 | −3 | – | – | –
3 | Cl.N [NH4Cl, reference compound] | 43 | 47 | 33 | 38 | 11 | 43 | – | – | –
4 | Cl.N=C(N)NCCC[C@H](N)C(=O)O [L-arginine hydrochloride, L-arginine monohydrochloride] | 73 | 50 | 35 | 44 | 17 | 63 | better palatabilities | better palatabilities | eaten well
5 | Cl.NCCCC[C@H](N)C(=O)O [L-lysine hydrochloride, L-lysine monohydrochloride] | 89 | 88 | 73 | 40 | 15 | 80 | better palatabilities | better palatabilities | eaten well
6 | Cl.NCCC[C@H](N)C(=O)O [L-ornithine hydrochloride, L-ornithine monohydrochloride] | 55 | 70 | 40 | 65 | 15 | 52 | better palatabilities | better palatabilities | –
